From patent US20180016344A1
No constants are given. Whether binding was seen depends on the method and setting. Binding calls can cover weak binding; strength is not graded here. One block for each binder: values may come before it.

Columns and labels:
[1] = target: cynomolgus monkey (Macaca fascicularis) DR5 (cynomolgus monkey (Macaca fascicularis)); experiment: legend of FIG. 5
[2] = target: cynomolgus monkey (Macaca fascicularis) DR5 (cynomolgus monkey (Macaca fascicularis)); experiment: antibody titration read as MFI (log axis) against concentration in nM; the text does not describe the assay format or how DR5 was presented (Example 2)

- binding [1]: binds
- binding [2]: binds
B1: DR5 mAb 1 (antibody, V domains shown)
VH: EVKFLESGGGLVQPGGSLKLSCVASGFDFSRYWMSWVRQAPGKGLEWIGEINPDSNTINYTPSLKDKFIISRDNAKNTLYLQMTKVRSEDTALYYCTRRAYYGNPAWFAYWGQGTLVTVSS
VL: DIVLTQSPASLAVSLGQRATISCRASKSVSSSGYSYMHWYQQKPGQPPKVLIFLSSNLDSGVPARFSGSGSGTDFTLNIHPVEDGDAATYYCQHSRDLPPTFGGGTKLEIK

- binding [1]: binds
- binding [2]: binds
B2: DR5 mAb 2 (antibody, V domains shown)
VH: KVQLQQSGAELVKPGASVKLSCKASGYTFTEYILHWVKQKSGQGLEWIGWFYPGNNNIKYNEKFKDKATLTADKSSSTVYMELSRLTSEDSAVYFCARHEQGPGYFDYWGQGTTLTVSS
VL: DIVMTQSHKFMSTSVGDRVSITCKASQDVNTAVAWYQQKPGQSPKLLIYWASTRHTGVPDRFTGSGSGTDYTLTIKSVQAEDLTLYYCQQHYITPWTFGGGTKLEIK
